Results on one sequence are retold here after US6171781.

In this data set the test system is NF-ATc/NF-ATp purified from thymus (Bos taurus). The data set can be described thus: binding assay. Particulars: affinity chromatography purification from bovine thymus cytosol; purified native protein; label: coupled to sepharose CL4B.

For at least one entry, the source does not settle the construct or the ends of the probe.

For the sequence “ACGCCCAAAGAGGAAAATTTGTTTCATACA (double strand) [NF-AT affinity site (multimerized)]”, the binding result was “binds”.
